Experimental data reported in patent US5578725A, “Delta opioid receptor antagonists” (priority 1995, dated 1996).
“Also recorded” adds a separate entry of the source. Structures can show the parent of a compound that is named as a salt. Some results were stated once for a whole list of compounds, not compound by compound.

By UniProt entry, the sequences of proteins in these tests, tags left out. Where a name states a change or a piece, a line headed by the entry shows the natural chain unless it says otherwise.
UniProt P32300, whole entry: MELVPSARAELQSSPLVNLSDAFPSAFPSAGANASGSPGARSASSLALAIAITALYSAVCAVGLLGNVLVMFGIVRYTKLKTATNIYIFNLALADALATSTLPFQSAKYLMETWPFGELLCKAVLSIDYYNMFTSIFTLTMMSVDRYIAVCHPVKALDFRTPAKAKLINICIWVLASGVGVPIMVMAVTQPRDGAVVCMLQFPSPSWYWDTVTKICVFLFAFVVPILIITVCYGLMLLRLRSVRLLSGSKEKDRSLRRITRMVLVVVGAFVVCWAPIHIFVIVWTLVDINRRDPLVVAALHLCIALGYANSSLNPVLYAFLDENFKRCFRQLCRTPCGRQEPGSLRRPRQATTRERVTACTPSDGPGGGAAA

Target: δ opioid receptors (Mus musculus, UniProt P32300)
Experiment: Antagonism of DADLE (δ) in electrically stimulated mouse vas deferens (MVD) preparation
Conditions: for δ selectivity / IC50 selectivity ratios compared with NTI (in words): MVD/GPI; for δ opioid receptor antagonist potency (in words): hydrochloride

| Compound | δ selectivity / IC50 selectivity ratios compared with NTI (in words) | δ opioid receptor antagonist potency (in words) |
| --- | --- | --- |
| NCCC[C@H](NC(=O)c1cccc2c3c([nH]c12)[C@@H]1Oc2c(O)ccc4c2[C@@]12CCN(CC1CC1)[C@H](C4)[C@]2(O)C3)C(=O)O [Compound 4, 7'-(Carboxamido L-ornithine)-17-(cyclopropylmethyl)-6,7-dehydro-3,14-dihydroxy-4,5α-epoxy-6,7,2',3'-indolomorphinan hydrochloride] | δ-selectivities were equivalent to or higher than that of NTI | potent and selective δ opioid antagonists; also recorded: None were more potent than NTI at δ receptors |
| O=C(O)CNC(=O)c1cccc2c3c([nH]c12)[C@@H]1Oc2c(O)ccc4c2[C@@]12CCN(CC1CC1)[C@H](C4)[C@]2(O)C3 [Compound 2, 7'-(Carboxamidoglycine)-17-(cyclopropylmethyl)-6,7-dehydro-3,14-dihydroxy-4,5α-epoxy-6,7,2',3'-indolomorphinan hydrochloride] | δ-selectivities were equivalent to or higher than that of NTI | potent and selective δ opioid antagonists; also recorded: None were more potent than NTI at δ receptors |
| N=C(N)NCCC[C@H](NC(=O)c1cccc2c3c([nH]c12)[C@@H]1Oc2c(O)ccc4c2[C@@]12CCN(CC1CC1)[C@H](C4)[C@]2(O)C3)C(=O)O [Compound 5, 7'-(Carboxamido-L-arginine)-17-(cyclopropylmethyl)-6,7-dehydro-3,14-dihydroxy-4,5α-epoxy-6,7,2',3'-indolomorphinan hydrochloride] | δ-selectivities were equivalent to or higher than that of NTI | potent and selective δ opioid antagonists; also recorded: None were more potent than NTI at δ receptors |
